Experimental data taken from the supplement of paper PMC8256030.
Some of the results follow. Repeats in this data set agree poorly, so a single value says little.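 HEK293T cells were given each compound shortly before transfection with a reporter in which red mCherry is followed by the SARS-CoV-2 frameshift element and then GFP in the −1 frame, so GFP appears only after frameshifting.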

Columns and labels:
HEK293T = test: percent viability (nuclei count) relative to control; higher = more viable cells; details: 10 µM; 24 h
[1] = tested on: SARS-CoV-2 -1 PRF reporter mCherry-FSE-GFP(-1); test: mCherry (red) intensity as percent of control; higher = higher upstream reporter expression; details: 10 µM; 24 h; HEK293T
[2] = tested on: SARS-CoV-2 -1 PRF reporter mCherry-FSE-GFP(-1); test: percent effect, decrease of GFP/mCherry ratio (-1 PRF reporter) relative to controls; higher = stronger frameshift inhibition; details: 10 µM; 24 h; HEK293T

Row | SMILES | percent viability (HEK293T) [%] | mCherry [1] [%] | percent effect [2] [%]
1 | CCC1(CC)C(=O)NC(=O)NC1=O [barbital sodium] | 147 | 103 | -0.759
2 | CCOP(=O)(OCC)O/C(=C\Cl)c1ccc(Cl)cc1Cl [clofenvinfos] | 178 | 76.1 | 1.81
3 | CCC(=O)O[C@H]1CC[C@H]2[C@@H]3CCC4=CC(=O)CC[C@]4(C)[C@H]3CC[C@]12C [Testosterone Propionate] | 228 | 91.2 | 0.0813
